For assay [1], the target named is human CD71 on the surface of human cell lines (human) (UniProt P02786). Nature of the assay: FACS on cells.
Assay [2] shares this target. The experiment in a line: FACS on BxPC3 cells.

The values that follow come from patent US20190111150A1.

Results are given in words; binding and its absence hold for the method and conditions named. Some entries that bind do so weakly or less than the wild type.

B1: anti-CD71 M21 mouse monoclonal antibody (antibody, V domains shown)
VH: EVQLQESGTVLARPGASVKMSCKASGYTFTSYWMHWVKQRPGQGLEWIGAIYPGNSETGYNQNFKGKAKLTAVTSASTAYMDLSSLTNEDSAVYYCTRENWDPGFAFWGQGTLITVSA
VL: DIVMTQTPAIMSASPGEKVTITCSASSSVYYMYWFQQKPGTSPKLWIYSTSNLASGVPVRFSGSGSGTSYSLTISRMEAEDAATYYCQQRRNYPYTFGGGTKLEIKR
Take B1: the binding entry in assay [1] and in assay [2] was “binds” in each case.
